# Square brackets hold non-standard residues; d marks the D form. * marks the point of attachment. hArg = N=C(N)NCCCC[C@H](N)C(=O)O; Acm = CC(=O)NC*; Mpa = O=C(O)CCS
# Assay: general procedure: Fmoc solid-phase peptide synthesis; Thr(t-Bu)-ol-2-Cl-Trt resin; 2-Cl-Trt resin; Rink amide resin; TBTU/HOBt with diisopropylethylamine or collidine
# Settings: whole synthesis, RP-HPLC, 5μ C18 column, 0.05% TFA in acetonitrile/water, 1 ml/min, scale of the general procedure 100 g resin (0.7 mmol/g), 50 g resin, 30 g resin
substance,measurement,setting,value
D-Phe-Cys-Phe-D-Trp-Lys-Thr-Cys-Thr-ol,final HPLC purity,"trifluoroacetate, exchanged to acetate for desmopressin and calcitonin, one disulfide bridge, sequence written open",>98.5%
Mpa-Tyr-Phe-Gln-Asn-Cys(Acm)-Pro-D-Arg-Gly-NH2,final HPLC purity,acetate,>99.0%
[Mpa][hArg]GDWPC(Acm)-NH2,final HPLC purity,"trifluoroacetate, exchanged to acetate for desmopressin and calcitonin",>98.5%
